Reference: patent publication US20100105602A1, “TREATMENT OF INT[…] INFECTIONS” (Novozymes A/S, priority 2008, published 2010)
Some entries share one result that the patent states for a list of compounds.

Test system: Staphylococcus aureus in THP-1 macrophages
Experiment: In vitro intracellular activity in infected THP-1 macrophages, general statement
Type: cell-based
Details: no additional increase in activity above these levels

Row | Molecule | drug concentration at which marked intracellular effect is reached
1 | Defensin2114: defensin polypeptide shown as SEQ ID NO: 1; synthetic defensin derived from Plectasin (GFGCNGPWNEDDLRCHNHCKSIKGYKGGYCAKGGFVCKCY) | 1-8 ×MIC
2 | CC[C@H](C)[C@@H]1NC(=O)[C@H](CO)NC(=O)[C@H](CCCCN)NC(=O)[C@@H]2CSSC[C@@H](C(=O)N[C@@H](Cc3ccc(O)cc3)C(=O)O)NC(=O)[C@H](CCCCN)NC(=O)[C@@H]3CSSC[C@H](NC(=O)[C@H](CCC(N)=O)NC(=O)[C@H](CCSC)NC(=O)[C@H](CC(=O)O)NC(=O)[C@H](CC(=O)O)NC(=O)[C@H](CCC(=O)O)NC(=O)[C@H](CC(=O)O)NC(=O)[C@H](Cc4c[nH]c5ccccc45)NC(=O)[C@@H]4CCCN4C(=O)CNC(=O)[C@H](CC(N)=O)NC(=O)[C@@H](NC(=O)CNC(=O)[C@H](Cc4ccccc4)NC(=O)CN)CSSC[C@H](NC(=O)[C@H](Cc4ccc(O)cc4)NC(=O)CNC(=O)CNC(=O)[C@H](CCCCN)NC(=O)[C@H](Cc4ccc(O)cc4)NC(=O)CNC(=O)[C@H](CCCCN)NC1=O)C(=O)N[C@@H](C)C(=O)N[C@@H](CCCCN)C(=O)NCC(=O)NCC(=O)N[C@@H](Cc1ccccc1)C(=O)N[C@@H](C(C)C)C(=O)N3)C(=O)N[C@@H](Cc1c[nH]cn1)C(=O)N[C@@H](CC(N)=O)C(=O)N[C@@H](Cc1c[nH]cn1)C(=O)N2 [Plectasin] | 1-8 ×MIC
